{
  "source": "PubChem BioAssay AID504467",
  "about": "(National Center for Advancing Translational Sciences (NCATS), 2011)",
  "note": "About 7,700 (2.3%) of roughly 330,000 compounds were called active. This list was built around the results that the source calls inconclusive (neither active nor inactive); the mix of calls is not that of the screen. Calls come from the whole dose curve; as a rule, active = well fitted inhibition curve with a large enough effect; inconclusive = small, poorly fitted or top-dose-only effect, or effect the other way; inactive = flat fitted curve, though single readings scatter. Where the call is inconclusive, the potency comes from a doubtful curve fit. Potency is the fitted concentration of half-maximal effect.",
  "data": [
    {"assay": "qHTS screen for small molecules that inhibit ELG1-dependent DNA repair in human embryonic kidney (HEK293T) cells expressing luciferase-tagged ELG1; note: nearly all actives have a fitted effect of over 55% in size", "details": "HEK293T ELG1-luciferase reporter, luminescence, 16 h, DNA damage induced by 5-fluorouridine; series mostly up to 46.1 µM", "in_short": "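Overnight (16 hr) co-exposure of 2,000 cells/well to 5-fluorouridine and compound at 37 °C preceded detection. Luciferase was quantified via ONE-Glo luminescence; loss of signal denotes inhibition.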", "values": [
      {"smiles": "COc1cc(CCNC(=O)c2ccccc2NC(=O)C2=C(C)OCCS2)cc(OC)c1OC", "Potency": "inconclusive: 16.4 µM [inhibitor, single point]"},
      {"smiles": "O=c1[nH]c2cc([N+](=O)[O-])c(NCCO)c([N+](=O)[O-])c2[nH]1", "Potency": "inactive"},
      {"smiles": "NC(=O)c1nsc(C(=O)N(c2ccccc2F)C(C(=O)NCc2ccccc2)c2ccc(O)cc2)c1N", "note": "(stereo unspecified)", "Potency": "active: 6.51 µM"},
      {"smiles": "CN(C)S(=O)(=O)N(CC(=O)Nc1ccc2ccccc2c1)c1ccccc1", "Potency": "active: 23.1 µM"},
      {"smiles": "CC(C)(C)c1ccc(NC(=O)N2CCCN(c3c(Cl)cncc3Cl)CC2)cc1", "Potency": "inconclusive: 20.6 µM [inhibitor, single point]"},
      {"smiles": "COc1ccccc1-c1c(C)[nH]n2c(=O)c(Cc3ccccc3)c(C)nc12", "Potency": "inconclusive: 29.1 µM [inhibitor, single point]"},
      {"smiles": "CN1CCC/C1=C/C=C1\\SC(=S)NC1=O", "Potency": "inconclusive: 20.6 µM [activator, partial curve]"},
      {"smiles": "C=CCNC(=S)N/N=C/c1ccc(C)c([N+](=O)[O-])c1", "Potency": "inactive"},
      {"smiles": "COc1ccc(N(CC(=O)Nc2cc(Cl)ccc2OC)S(=O)(=O)c2c(C)noc2C)cc1", "Potency": "inactive"},
      {"smiles": "Cc1cc(C(=O)Nc2cccc(C(=O)O)c2)oc1C", "Potency": "inconclusive: 29.1 µM [inhibitor, single point]"},
      {"smiles": "COc1ccc(CCNC(=O)c2cc3c(cc2Cl)N2CCCCCC2=NS3(=O)=O)cc1", "Potency": "inactive"},
      {"smiles": "O=C(CN(CCc1ccccc1)S(=O)(=O)c1ccc(Br)cc1)N/N=C/c1ccccc1C(=O)O", "Potency": "inactive"},
      {"smiles": "COC(=O)c1cnc(NNS(=O)(=O)c2ccc(C(F)(F)F)cc2)nc1C(F)(F)F", "Potency": "inconclusive: 32.6 µM [inhibitor, single point]"},
      {"smiles": "CCOc1ccccc1CN1CCN(Cc2csc(C(C)=O)c2)CC1CCO", "note": "(stereo unspecified)", "Potency": "inactive"},
      {"smiles": "COC(=O)c1[nH]c2cc(OC)ccc2c1NC(=O)c1ccc2c(c1)OCO2", "Potency": "inconclusive: 29.1 µM [inhibitor, single point]"},
      {"smiles": "COc1ccccc1N1CCN(C2CC(=O)N(c3cccc(Cl)c3)C2=O)CC1", "note": "(stereo unspecified)", "Potency": "inconclusive: 1 µM [activator, full curve, poor fit]"},
      {"smiles": "COc1ccc2[nH]c(=O)cc(C(=O)O)c2c1", "Potency": "inactive"},
      {"smiles": "COc1ccc(CCC(C)N2CCOCC2)cc1", "note": "(stereo unspecified)", "Potency": "inactive"},
      {"smiles": "COc1cccc(/C=N/Nc2nccnc2Cl)c1O", "Potency": "inconclusive: 0.517 µM [activator, full curve]"},
      {"smiles": "COc1cc(C(=O)Nc2ccc(Oc3ncnc4sc(-c5ccccc5)cc34)cc2)cc(OC)c1OC", "Potency": "inconclusive: 6.51 µM [inhibitor, single point]"},
      {"smiles": "CC1CCN(C(=O)C(C)OC(=O)CSc2ccc([N+](=O)[O-])cc2)CC1", "note": "(stereo unspecified)", "Potency": "inactive"},
      {"smiles": "N#CCCN1CCN(S(=O)(=O)c2ccc(C3CCCCC3)cc2)CC1", "Potency": "inactive"},
      {"smiles": "COc1ccccc1NC(=O)C(=O)N/N=C(\\C)CC(=O)Nc1ccc(OCc2ccccc2)cc1", "Potency": "inconclusive: 16.4 µM [activator, single point]"},
      {"smiles": "Cc1nc2ccccc2c(=O)n1/N=C/C=C/c1ccccc1", "Potency": "inactive"},
      {"smiles": "O=C(NCc1ccccc1Cl)C1CCCN1S(=O)(=O)c1ccccc1F", "note": "(stereo unspecified)", "Potency": "inactive"},
      {"smiles": "O=C1C(Nc2cccc(O)c2)=C(N2CCCCC2)C(=O)c2ccccc21", "Potency": "active: 13 µM"},
      {"smiles": "COc1ccc(OC)c(CNC(=O)C(C)n2nc(C)c3c(C)n(-c4ccccc4)nc3c2=O)c1", "note": "(stereo unspecified)", "Potency": "inactive"},
      {"smiles": "Cc1ccc(-n2c(=O)c3c4c(sc3n3c(=S)[nH]nc23)CCC4)cc1", "Potency": "inactive"},
      {"smiles": "COc1cc2ccccc2cc1C(=O)Nc1ccc(C)cc1", "Potency": "inconclusive: 2.59 µM [activator, full curve]"},
      {"smiles": "CCC(=O)c1ccc(OCC(O)Cn2nnc3ccccc32)cc1", "note": "(stereo unspecified)", "Potency": "inconclusive: 14.6 µM [activator, partial curve]"},
      {"smiles": "Cc1ccc2[nH]c3c(c2c1)CN(C(=O)CN1c2ccc(F)cc2CCC1C)CC3", "note": "(stereo unspecified)", "Potency": "inconclusive: 3.55 µM [inhibitor, partial curve, poor fit]"},
      {"smiles": "O=C(COC(=O)c1nc(Cl)ccc1Cl)NC1CCS(=O)(=O)C1", "note": "(stereo unspecified)", "Potency": "inconclusive: 14.1 µM [activator, single point]"},
      {"smiles": "CN(C(=O)c1ccc(NC(=O)C2CCCN(C(=O)OC(C)(C)C)C2)cc1)C1CC1", "note": "(stereo unspecified)", "Potency": "inconclusive: 25.9 µM [inhibitor, partial curve, poor fit]"},
      {"smiles": "O=c1cc(O)c2sc3nc4c(c(C(F)(F)F)c3c2[nH]1)CCCCC4", "Potency": "inactive"},
      {"smiles": "COc1ccccc1C(=O)CSc1ccccn1", "Potency": "inconclusive: 16.4 µM [activator, single point]"},
      {"smiles": "CC1CCCC(C)N1S(=O)(=O)c1ccc(NC(=O)c2ccccc2C(=O)N2CCOCC2)cc1", "note": "(stereo unspecified)", "Potency": "inactive"},
      {"smiles": "COc1ccc(C)cc1S(=O)(=O)N(CC(=O)Nc1cccc([N+](=O)[O-])c1)c1ccccc1", "Potency": "inconclusive: 25.9 µM [inhibitor, partial curve]"},
      {"smiles": "CCn1c(Cn2nnc(-c3ccccc3)n2)nnc1SCC(=O)Nc1ccc(C(C)=O)cc1", "Potency": "inconclusive: 29.1 µM [activator, single point]"},
      {"smiles": "COc1ccccc1OCC(=O)Nc1cc(Cl)ccc1N1CCCCC1", "Potency": "inactive"},
      {"smiles": "COc1ccccc1/C=N/Nc1nncc2ccccc12", "Potency": "inconclusive: 8.2 µM [activator, partial curve]"},
      {"smiles": "COc1ccc(N=C2SC(CC(=O)Nc3ccccc3)C(=O)N2CC2CCCO2)cc1", "note": "(stereo unspecified)", "Potency": "inconclusive: 32.6 µM [inhibitor, single point]"},
      {"smiles": "CC(NC(=O)c1cccs1)C(c1cccs1)N1CCOCC1", "note": "(stereo unspecified)", "Potency": "inactive"},
      {"smiles": "Nc1nc(Nc2ccc(Cl)cc2Cl)nc(C(F)(F)F)n1", "Potency": "inconclusive: 10.3 µM [activator, partial curve]"},
      {"smiles": "Cc1c(Cc2ccccc2)c(=O)oc2c(O)c(O)ccc12", "Potency": "inactive"},
      {"smiles": "CC(C)(C)OC(=O)N/N=C\\c1ccc([N+](=O)[O-])s1", "Potency": "inconclusive: 23.1 µM [inhibitor, single point]"},
      {"smiles": "CCOC(=O)C1CCN(CC(=O)c2c(C)n(C)c3ccc(OC)cc23)CC1", "Potency": "inactive"},
      {"smiles": "O=C(C[n+]1cccc(NC(=O)c2ccccc2)c1)c1ccccc1", "Potency": "inactive"},
      {"smiles": "Cc1cc(C)n(CCCN2C(=O)c3cccc4cccc(c34)C2=O)n1", "Potency": "inconclusive: 13 µM [inhibitor, partial curve, poor fit]"},
      {"smiles": "Cc1ccc(-c2nnc(Oc3ccc(NC(=O)c4ccccc4)cc3)c3ccccc23)cc1", "Potency": "inconclusive: 23.1 µM [inhibitor, partial curve]"},
      {"smiles": "Cc1nn(C)c(C)c1CN(C)C(=O)c1nn2c(c1Br)NC(c1cccs1)CC2C(F)(F)F", "note": "(stereo unspecified)", "Potency": "inactive"},
      {"smiles": "CC(=O)N1CCN(c2ccc(NC(=O)c3cccc(C)c3)cc2)CC1", "Potency": "inconclusive: 23.1 µM [activator, partial curve]"},
      {"smiles": "CCOC(=O)C(=Cc1ccc(Br)cc1)C(=O)OCC", "Potency": "inconclusive: 23.1 µM [inhibitor, single point]"},
      {"smiles": "COc1cccc(-c2cc(C(=O)Nc3cccnc3)no2)c1", "Potency": "inconclusive: 29.1 µM [activator, single point]"},
      {"smiles": "CC(=O)n1nc(-c2ccccc2)nc1NCc1ccc(N(C)C)cc1", "Potency": "inconclusive: 20.6 µM [activator, partial curve]"},
      {"smiles": "CCC1CCCCN1S(=O)(=O)c1ccc(C(=O)Nc2nnc(-c3ccccc3Cl)o2)cc1", "note": "(stereo unspecified)", "Potency": "inconclusive: 9.2 µM [inhibitor, partial curve]"},
      {"smiles": "O=C1CSC(c2cn(-c3ccccc3)nc2-c2cc3ccccc3oc2=O)N1Cc1cccnc1", "note": "(stereo unspecified)", "Potency": "inconclusive: 29.1 µM [inhibitor, single point]"},
      {"smiles": "O=C(Cn1ncc(Cl)c(Cl)c1=O)N1CCN(Cc2ccccc2)CC1", "Potency": "inconclusive: 29.1 µM [inhibitor, single point]"},
      {"smiles": "CCC(=O)N1CCN(c2ccc(NC(=O)c3ccc4c(c3)OCCO4)cc2)CC1", "Potency": "inconclusive: 20.6 µM [activator, partial curve]"},
      {"smiles": "O=C(Oc1ccc(/C=N/O)cc1)c1ccccc1", "Potency": "inactive"},
      {"smiles": "O=C(c1ccccc1)c1cccn1CC(=O)N1CCN(C2CCCCC2)CC1", "Potency": "inconclusive: 6.31 µM [inhibitor, partial curve, poor fit]"},
      {"smiles": "CCOC(=O)c1sc(NC(=O)/C=C/c2cnn(CC)c2C)c(C(=O)OCC)c1C", "Potency": "inconclusive: 7.31 µM [inhibitor, partial curve, poor fit]"},
      {"smiles": "Cc1cccc2cc(CN(Cc3ccc(F)cc3)C(=O)N(C)C)c3nnnn3c12", "Potency": "inactive"},
      {"smiles": "COc1cc(/C=C/C(=O)O)cc(S(=O)(=O)NC2CC2)c1OC", "Potency": "inactive"},
      {"smiles": "O=C(Nc1ccc(Cl)cc1Cl)c1csc(-c2cccnc2)n1", "Potency": "inconclusive: 5.8 µM [activator, partial curve, poor fit]"},
      {"smiles": "Cc1cccc(C)c1-n1c(C)cc(/C=N\\Nc2ccc([N+](=O)[O-])cn2)c1C", "Potency": "inactive"},
      {"smiles": "O=C(c1ccccc1)c1ccc(OC(=O)N2CCCC2)cc1", "Potency": "inconclusive: 18.4 µM [activator, single point]"},
      {"smiles": "O=C(OCCOCCN=C1NS(=O)(=O)c2ccccc21)c1ccccc1Br", "Potency": "inconclusive: 1.64 µM [activator, partial curve]"},
      {"smiles": "O=[N+]([O-])/C(C(=C(Cl)Cl)N1CCN(Cc2ccccc2)CC1)=C1\\NCCN1Cc1ccc(Cl)nc1", "Potency": "inactive"},
      {"smiles": "Cc1cccc(-n2nnc(C(=O)NCc3ccco3)c2N)c1", "Potency": "inconclusive: 14.6 µM [activator, partial curve]"},
      {"smiles": "CCOC(=O)c1sc(NC(NC(=O)c2ccco2)(C(=O)OC)C(F)(F)F)nc1C", "note": "(stereo unspecified)", "Potency": "inconclusive: 29.1 µM [inhibitor, single point]"},
      {"smiles": "Clc1cccc(Cl)c1C1Nc2cccc3cccc(c23)N1", "Potency": "inconclusive: 18.3 µM [inhibitor, single point]"}
    ]}
  ]
}
